# Results taken from the supplement of paper PMC8728848.
# Some of the results follow.
# How the values were obtained:
# Assay in all cases: glycan array binding signal (z-score within array); higher = stronger binding
# Conditions in all cases: glycan notation: IUPAC condensed, linker removed
# [1] = target: Neu5Ac(a2-6)Gal(b1-4)GlcNAc(b1-2)Man(a1-3)[Man(a1-6)]Man(b1-4)GlcNAc(b1-4)GlcNAc
# Method in brief: (§1)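 Glycan array data were curated from 3228 arrays in the Consortium for Functional Glycomics database and kept only where the protein sequence was available. Glycan names were converted to IUPAC-condensed notation, and columns mapping to the same glycan were averaged. The binding signal is a within-array Z-score, averaged across arrays of the same protein sequence at different concentrations or buffers and across linkers. Negative Z-scores can be read as non-binding.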
# [2] = target: Neu5Ac(a2-6)Gal(b1-4)GlcNAc(b1-2)Man(a1-3)[Neu5Ac(a2-3)Gal(b1-4)GlcNAc(b1-2)Man(a1-6)]Man(b1-4)GlcNAc(b1-4)GlcNAc
# Method in brief: as §1
# [3] = target: Neu5Ac(a2-6)Gal(b1-4)GlcNAc(b1-2)Man(a1-3)[Neu5Ac(a2-6)Gal(b1-4)GlcNAc(b1-2)Man(a1-6)]Man(b1-4)GlcNAc(b1-4)GlcNAc
# Method in brief: as §1
# [4] = target: Neu5Ac(a2-6)Gal(b1-4)GlcNAc(b1-2)Man(a1-3)[Neu5Ac(a2-6)Gal(b1-4)GlcNAc(b1-2)Man(a1-6)]Man(b1-4)GlcNAc(b1-4)[Fuc(a1-6)]GlcNAc
# Method in brief: as §1
# [5] = target: Neu5Ac(a2-6)Gal(b1-4)GlcNAc(b1-2)Man(a1-6)Man(b1-4)GlcNAc(b1-4)GlcNAc
# Method in brief: as §1
# [6] = target: Neu5Ac(a2-6)Gal(b1-4)GlcNAc(b1-2)Man(a1-6)[Gal(b1-4)GlcNAc(b1-2)Man(a1-3)]Man(b1-4)GlcNAc(b1-4)GlcNAc
# Method in brief: as §1
# [7] = target: Neu5Ac(a2-6)Gal(b1-4)GlcNAc(b1-2)Man(a1-6)[GlcNAc(b1-2)Man(a1-3)]Man(b1-4)GlcNAc(b1-4)GlcNAc
# Method in brief: as §1
# [8] = target: Neu5Ac(a2-6)Gal(b1-4)GlcNAc(b1-2)Man(a1-6)[Man(a1-3)]Man(b1-4)GlcNAc(b1-4)GlcNAc
# Method in brief: as §1
# [9] = target: Neu5Ac(a2-6)Gal(b1-4)GlcNAc(b1-2)[Neu5Ac(a2-6)Gal(b1-4)GlcNAc(b1-4)]Man(a1-3)[GlcNAc(b1-4)][Neu5Ac(a2-6)Gal(b1-4)GlcNAc(b1-2)[Neu5Ac(a2-6)Gal(b1-4)GlcNAc(b1-6)]Man(a1-6)]Man(b1-4)GlcNAc(b1-4)GlcNAc
# Method in brief: as §1
# [10] = target: Neu5Ac(a2-6)Gal(b1-4)GlcNAc(b1-2)[Neu5Ac(a2-6)Gal(b1-4)GlcNAc(b1-4)]Man(a1-3)[GlcNAc(b1-4)][Neu5Ac(a2-6)Gal(b1-4)GlcNAc(b1-4)Man(a1-6)]Man(b1-4)GlcNAc(b1-4)GlcNAc
# Method in brief: as §1
# [11] = target: Neu5Ac(a2-6)Gal(b1-4)GlcNAc(b1-2)[Neu5Ac(a2-6)Gal(b1-4)GlcNAc(b1-6)]Man(a1-6)[Neu5Ac(a2-6)Gal(b1-4)GlcNAc(b1-2)Man(a1-3)][GlcNAc(b1-4)]Man(b1-4)GlcNAc(b1-4)GlcNAc
# Method in brief: as §1
# [12] = target: Neu5Ac(a2-6)Gal(b1-4)GlcNAc(b1-3)Gal(b1-3)GlcNAc
# Method in brief: as §1
# [13] = target: Neu5Ac(a2-6)Gal(b1-4)GlcNAc(b1-3)Gal(b1-4)GlcNAc
# Method in brief: as §1
# [14] = target: Neu5Ac(a2-6)Gal(b1-4)GlcNAc(b1-3)Gal(b1-4)GlcNAc(b1-2)Man(a1-3)[Neu5Ac(a2-6)Gal(b1-4)GlcNAc(b1-3)Gal(b1-4)GlcNAc(b1-2)Man(a1-6)]GalNAc
# Method in brief: as §1
# [15] = target: Neu5Ac(a2-6)Gal(b1-4)GlcNAc(b1-3)Gal(b1-4)GlcNAc(b1-3)Gal(b1-4)GlcNAc
# Method in brief: as §1
# [16] = target: Neu5Ac(a2-6)Gal(b1-4)GlcNAc(b1-3)Gal(b1-4)GlcNAc(b1-3)Gal(b1-4)GlcNAc(b1-2)Man(a1-3)[Neu5Ac(a2-6)Gal(b1-4)GlcNAc(b1-3)Gal(b1-4)GlcNAc(b1-3)Gal(b1-4)GlcNAc(b1-2)Man(a1-6)]GalNAc
# Method in brief: as §1
# [17] = target: Neu5Ac(a2-6)Gal(b1-4)GlcNAc(b1-3)Gal(b1-4)GlcNAc(b1-3)GalNAc
# Method in brief: as §1
# [18] = target: Neu5Ac(a2-6)Gal(b1-4)GlcNAc(b1-3)Gal(b1-4)GlcNAc(b1-3)[Neu5Ac(a2-6)Gal(b1-4)GlcNAc(b1-3)Gal(b1-4)GlcNAc(b1-6)]GalNAc
# Method in brief: as §1
# [19] = target: Neu5Ac(a2-6)Gal(b1-4)GlcNAc(b1-3)Gal(b1-4)GlcNAc(b1-6)[Gal(b1-3)]GalNAc
# Method in brief: as §1
# [20] = target: Neu5Ac(a2-6)Gal(b1-4)GlcNAc(b1-3)Gal(b1-4)[Fuc(a1-3)]GlcNAc(b1-3)Gal(b1-4)[Fuc(a1-3)]GlcNAc
# Method in brief: as §1
# [21] = target: Neu5Ac(a2-6)Gal(b1-4)GlcNAc(b1-3)GalNAc
# Method in brief: as §1
# [22] = target: Neu5Ac(a2-6)Gal(b1-4)GlcNAc(b1-3)[Neu5Ac(a2-6)Gal(b1-4)GlcNAc(b1-6)]GalNAc
# Method in brief: as §1
# [23] = target: Neu5Ac(a2-6)Gal(b1-4)GlcNAc(b1-6)GalNAc
# Method in brief: as §1
# [24] = target: Neu5Ac(a2-6)Gal(b1-4)GlcNAc(b1-6)[Gal(b1-3)GlcNAc(b1-3)]Gal(b1-4)Glc
# Method in brief: as §1
# [25] = target: Neu5Ac(a2-6)Gal(b1-4)GlcNAc(b1-6)[Gal(b1-3)]GalNAc
# Method in brief: as §1
# [26] = target: Neu5Ac(a2-6)Gal(b1-4)GlcNAc6S
# Method in brief: as §1
# [27] = target: Neu5Ac(a2-6)GalNAc
# Method in brief: as §1
# [28] = target: Neu5Ac(a2-6)GalNAc(b1-4)GlcNAc
# Method in brief: as §1
# [29] = target: Neu5Ac(a2-6)GalNAc(b1-4)GlcNAc6S
# Method in brief: as §1
# [30] = target: Neu5Ac(a2-6)GlcNAc(b1-4)GlcNAc
# Method in brief: as §1
# [31] = target: Neu5Ac(a2-6)GlcNAc(b1-4)GlcNAc(b1-4)GlcNAc
# Method in brief: as §1
# [32] = target: Neu5Ac(a2-8)Neu5Ac
# Method in brief: as §1
# [33] = target: Neu5Ac(a2-8)Neu5Ac(a2-3)Gal(b1-3)GalNAc(b1-4)[Neu5Ac(a2-3)]Gal(b1-4)Glc
# Method in brief: as §1
# [34] = target: Neu5Ac(a2-8)Neu5Ac(a2-3)Gal(b1-3)GalNAc(b1-4)[Neu5Ac(a2-8)Neu5Ac(a2-3)]Gal(b1-4)Glc
# Method in brief: as §1
# [35] = target: Neu5Ac(a2-8)Neu5Ac(a2-3)Gal(b1-4)Glc
# Method in brief: as §1
# [36] = target: Neu5Ac(a2-8)Neu5Ac(a2-3)Gal(b1-4)GlcNAc
# Method in brief: as §1
# [37] = target: Neu5Ac(a2-8)Neu5Ac(a2-3)[Gal(b1-3)GalNAc(b1-4)]Gal(b1-4)Glc
# Method in brief: as §1
# [38] = target: Neu5Ac(a2-8)Neu5Ac(a2-3)[GalNAc(b1-4)]Gal(b1-4)Glc
# Method in brief: as §1
binder,measurement,setting,value
"GST-Gap1 (Streptococcus parasanguinis), A1C3L5 (protein) MFYFVPSWYNGQRQWYYDTPWWFRVKNRMTFDDSVNQVKMFLQGQEEIGLMILNYQPQLRYFLHKQNIFGIYYWSFFDDIQNITRSYTKIIHLKDLNWPEGCEFLYSPFAVVVRLKGEIFAIVNYAEDGNLHSVSFQKNGKVTKDYIFDDRGFLSSILYYDIDERPLYQDYLNINGVWQVREFLKKENDPTPILMINDFSDQTFSKKYYNGWEELIKERLAIFQNNHVENEDVFVLASDTQHNQLVSSIFKEHRKIYSFFGNRFNLENLGQDRISINDATFLVVDTEKNEELLRKTCENLVFKSIPIVRLSPFDSRLRLGHSQTVKEQIIYFHIDNIELDELYSVIAIILELMTLHLDIELRIVTFRQDFQLDLLKTWIIDFIKTNHFEDLLFKQISEGENEIEDEGEIELSRIAMECFTNENQIIKCLDTARLVIDLGIEPDLYTQIASISAGIPQINRVSSDYVIHQKNGLVISDISKLSSAIEFYFDGLFNWNEALIYAVRKMSDYTSGKILKQWKGMLKKK",glycan array binding signal (z-score),[1],-0.313
same,glycan array binding signal (z-score),[2],0.84
same,glycan array binding signal (z-score),[3],-0.179
same,glycan array binding signal (z-score),[4],0.529
same,glycan array binding signal (z-score),[5],-0.148
same,glycan array binding signal (z-score),[6],-0.247
same,glycan array binding signal (z-score),[7],0.187
same,glycan array binding signal (z-score),[8],0.218
same,glycan array binding signal (z-score),[9],-0.54
same,glycan array binding signal (z-score),[10],-0.986
same,glycan array binding signal (z-score),[11],-0.455
same,glycan array binding signal (z-score),[12],-0.308
same,glycan array binding signal (z-score),[13],-0.395
same,glycan array binding signal (z-score),[14],-0.327
same,glycan array binding signal (z-score),[15],-0.204
same,glycan array binding signal (z-score),[16],2.53
same,glycan array binding signal (z-score),[17],1.02
same,glycan array binding signal (z-score),[18],1.25
same,glycan array binding signal (z-score),[19],-1.12
same,glycan array binding signal (z-score),[20],-0.413
same,glycan array binding signal (z-score),[21],-0.167
same,glycan array binding signal (z-score),[22],0.03
same,glycan array binding signal (z-score),[23],1.54
same,glycan array binding signal (z-score),[24],-0.613
same,glycan array binding signal (z-score),[25],-0.402
same,glycan array binding signal (z-score),[26],0.323
same,glycan array binding signal (z-score),[27],-0.126
same,glycan array binding signal (z-score),[28],-0.49
same,glycan array binding signal (z-score),[29],-0.037
same,glycan array binding signal (z-score),[30],-0.414
same,glycan array binding signal (z-score),[31],-0.133
same,glycan array binding signal (z-score),[32],-0.737
same,glycan array binding signal (z-score),[33],0.25
same,glycan array binding signal (z-score),[34],0.195
same,glycan array binding signal (z-score),[35],0.176
same,glycan array binding signal (z-score),[36],-0.482
same,glycan array binding signal (z-score),[37],-0.001
same,glycan array binding signal (z-score),[38],-0.242

# Reprinted from above for reference:
binder,measurement,setting,value
"GST-Gap1 (Streptococcus parasanguinis), A1C3L5 (protein) MFYFVPSWYNGQRQWYYDTPWWFRVKNRMTFDDSVNQVKMFLQGQEEIGLMILNYQPQLRYFLHKQNIFGIYYWSFFDDIQNITRSYTKIIHLKDLNWPEGCEFLYSPFAVVVRLKGEIFAIVNYAEDGNLHSVSFQKNGKVTKDYIFDDRGFLSSILYYDIDERPLYQDYLNINGVWQVREFLKKENDPTPILMINDFSDQTFSKKYYNGWEELIKERLAIFQNNHVENEDVFVLASDTQHNQLVSSIFKEHRKIYSFFGNRFNLENLGQDRISINDATFLVVDTEKNEELLRKTCENLVFKSIPIVRLSPFDSRLRLGHSQTVKEQIIYFHIDNIELDELYSVIAIILELMTLHLDIELRIVTFRQDFQLDLLKTWIIDFIKTNHFEDLLFKQISEGENEIEDEGEIELSRIAMECFTNENQIIKCLDTARLVIDLGIEPDLYTQIASISAGIPQINRVSSDYVIHQKNGLVISDISKLSSAIEFYFDGLFNWNEALIYAVRKMSDYTSGKILKQWKGMLKKK",glycan array binding signal (z-score),[6],-0.247
same,glycan array binding signal (z-score),[7],0.187
